{
  "source": "paper PMC7533328",
  "about": "“Sulfane sulfur‐activated actinorhodin production and sporulation is maintained by a natural gene circuit in Streptomyces coelicolor”",
  "biological_target": "T1, ScCsoR (Streptomyces coelicolor M145) (UniProt Q9RD62)",
  "T1 sequence (looked up, limits assumed)": "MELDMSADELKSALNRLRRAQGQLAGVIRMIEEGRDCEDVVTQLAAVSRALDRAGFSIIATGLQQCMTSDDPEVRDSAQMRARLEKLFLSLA",
  "experiment": "EMSA",
  "details": "1-3 mM HSnH, ScCsoR 8 uM; 20 mM Tris-HCl pH 8.0, 2 mM EDTA, 20 mM KCl, 0.5 mM DTT (or 1-3 mM HSnH), 4% Ficoll-400, 1 nM probe, 25 C, 15 min; recombinant …; protein details: N-terminal His-tag (pET15b); label: 5'-biotin on strand 1",
  "note": "The exact form of at least one protein or probe is not confirmed. The comparison behind a weaker result is the experiment's own reference, which may not be listed here. At least one verdict was read from the data and is not stated in words by the source. Where a protein sequence is shown, tags need not be part of it.",
  "data": [
    {"sequence": "CCTGGGTATATCTGTTACGGTGGCCGGAAGAGATACCCCAGGGGGTAATTCCGGAAGGAGAGCGTGCCGTGTTCTTTGT (double strand) [Scpdo 79-bp probe (bsI, bsII)]", "values": [
      {"measurement": "binding result", "value": "binds more weakly"}
    ]}
  ]
}
